Experimental data from publication PMC12670160, “A drug-repurposing screen of FDA- and EMA-approved drugs identifies two NF-κB inhibitors active against eumycetoma” (Journal of Antimicrobial Chemotherapy, 2025).
Counter-ions that a name gives are not always drawn. About 130 (2.5%) of roughly 5,300 compounds showed an effect of 50% or more. This is one part of the list.

These compounds were tested on M. mycetomatis strain mm55. Conditions: primary screen, metabolic activity vs growth control; 96 h, 2 µM; inhibitor.

SMILES | % viability [%]
N=C(N)NCCSSCCNC(=N)N [ONC0004097, guanidinoethyldisulfidebicarbonate] | 107.9
COc1cc(C[C@@H](CO)[C@H](CO)Cc2ccc(O)c(OC)c2)ccc1O [ONC0002154, secoisolariciresinol] | 77.22
CN(C)C(=O)C(CCN1CCC(O)(c2ccc(Cl)cc2)CC1)(c1ccccc1)c1ccccc1 [ONC0005328, loperamide hydrochloride] | 73.55
O=C(CN1CCN(C(=O)c2ccco2)CC1)Nc1cc(C(F)(F)F)ccc1Cl [ONC0003072, ml348] | 145.2
CC(=O)C1C(=O)C=C(C)OC1=O (stereo not drawn) [ONC0000295, dehydroacetic acid] | 80.95
CC(=O)O[C@H]1CC[C@@]2(C)C(=CC[C@@H]3[C@@H]2CC[C@]2(C)C(c4cccnc4)=CC[C@@H]32)C1 [ONC0004597, abiraterone acetate] | 81.56
COc1ccccc1N1CCN(CCN2C(=O)c3ccccc3C(C)(C)C2=O)CC1 [ONC0002595, arc239] | 81.65
O=C1CCC[C@@H]2[C@@H]3CCC[N+]4([O-])CCC[C@H](CN12)[C@@H]34 (stereo partly drawn) [ONC0005063, oxymatrine matrine noxide] | 117.3
CC[C@H](C)[C@H](NC(=O)[C@H](Cc1ccc(O)cc1)NC(=O)[C@@H](NC(=O)[C@H](CCCNC(=N)N)NC(=O)[C@@H](N)CC(=O)O)C(C)C)C(=O)N[C@@H](Cc1cnc[nH]1)C(=O)N1CCC[C@H]1C(=O)N[C@@H](Cc1ccccc1)C(=O)O [ONC0002134, angiotensin ii human] | 79.83
Cc1cccc(C)c1NC(=O)CC12CCCN1CCC2 [ONC0003275, pilsicainide hydrochloride] | 96.95
Cc1ccccc1C(=O)Nc1ccc(C(=O)N2CCCC(O)c3cc(Cl)ccc32)c(C)c1 (stereo not drawn) [ONC0005015, tolvaptan opc41061] | 93.4
CC1=C(C(=O)O)N2C(=O)[C@@H](NC(=O)[C@H](N)C3=CCC=CC3)C2SC1 (stereo partly drawn) [ONC0000708, cephradine] | 86.49
CC[N+](CC)(CC)CCOc1ccc(/C=C/c2ccccc2)cc1 [ONC0002497, mg624] | 77
O=C(Nc1cccc(C(F)(F)F)c1)Nc1cc(S(=O)(=O)NC2CC2)ccc1-c1ccsc1 [ONC0005038, agi6780] | 85.66
Cc1noc2c1-c1ccccc1C(c1ccc(Cl)cc1)=N[C@H]2CC(N)=O [ONC0001113, cpi0610] | 62.21
O=C(Nc1cc(Oc2cc(F)c(NC(=O)C3(C(=O)Nc4ccc(F)cc4)CC3)cc2F)ccn1)C1CC1 [ONC0000826, altiratinib] | 71.46
COC(=O)[C@H](Cc1ccc([N+](=O)[O-])cc1)NC(=O)c1cccc2ccccc12 [ONC0002591, sb328437] | 66.06
NC(=O)NCCN1CCN(c2cccc(C(F)(F)F)c2)CC1 [ONC0002320, fluprazine] | 77.42
CC(C)OC(=O)N[C@H]1Cc2c(n(Cc3ccccn3)c3ccc(C#N)cc23)C1 [ONC0005299, ly2452473] | 119.8
Cc1cccc(C)c1NC(=O)C(C)N (stereo not drawn) [ONC0002925, tocainide] | 77.81

Look-ups from above.
Entry of `COc1ccccc1N1CCN(CCN2C(=O)c3ccccc3C(C)(C)C2=O)CC1` [ONC0002595, arc239] under % viability [%]: 81.65
Entry of `CC(=O)C1C(=O)C=C(C)OC1=O` (stereo not drawn) [ONC0000295, dehydroacetic acid] under % viability [%]: 80.95

Following part.

SMILES | % viability [%]
C=CCc1cccc(/C=N/NC(=O)CN2CCN(Cc3ccccc3)CC2)c1O [ONC0001284, pac1] | 110.2
CC(C(=O)O)c1ccc2c(c1)[nH]c1ccc(Cl)cc12 (stereo not drawn) [ONC0000615, carprofen] | 71.55
NC(=O)c1ccc(F)c2c1C[C@@H](N(C1CCC1)C1CCC1)CO2 [ONC0001469, robalzotan] | 64.45
CCCCc1cc2ccccc2c(OCCN(C)C)n1 [ONC0002954, dimethisoquin] | 80.7
Cc1cccc(C)c1NC(=O)c1ccc(N)cc1 [ONC0003186, ameltolide] | 85.86
O=P(O)(O)CP(=O)(O)O [ONC0005455, medronicacid] | 91.06
Cc1c(C)c(NCC(=O)N(C)C2CCN(Cc3ccc(C(N)=O)cc3)CC2)c(C)c(C)c1N [ONC0000175, sun11602] | 109.9
CN(C)CCN1C(=O)c2cccc3cc(NC(N)=O)cc(c23)C1=O [ONC0001401, unbs5162] | 84.35
Cn1cnc2[nH]c(=O)[nH]c(=O)c21 [ONC0005505, 7methylxanthine] | 146
CC(C(=O)O)c1ccc(-c2ccccc2)c(F)c1 (stereo not drawn) [ONC0002806, flurbiprofen] | 86.3
COc1cc(N)c(Cl)cc1C(=O)OCCCN1CCCCC1 [ONC0000311, rs23597190] | 64.28
OC(c1ccc(-c2ccc(CN3CCN(Cc4ccncc4)CC3)cc2)c(F)c1)(C(F)(F)F)C(F)(F)F [ONC0000776, sr2211] | 88.36
NC(=O)c1cn(Cc2c(F)cccc2F)nn1 [ONC0004791, rufinamide banzel] | 112.7
Cc1cc(O)c2c(c1)C(=O)c1cccc(O)c1C2=O [ONC0005265, chrysophanic acid chrysophanol] | 118.5
COc1cc2c(N3CCN(C(=O)Nc4ccc(OC(C)C)cc4)CC3)ncnc2cc1OCCCN1CCCCC1 [ONC0004364, tandutinib mln518] | 94.86
O=C(OCC(O)CO)c1ccccc1Nc1ccnc2cc(Cl)ccc12 (stereo not drawn) [ONC0003171, glafenine] | 88.45
CC(C)(C)CCN1C[C@@H]2[C@@H](CNC(=O)c3cc(Cl)cc(Cl)c3)[C@@H]2C1 [ONC0000926, ml218] | 81.71
OB1OCc2cc(F)ccc21 [ONC0001088, tavaborole] | 95.25
C[C@H](CCC(=O)O)[C@H]1CC[C@H]2[C@@H]3[C@H](O)C[C@@H]4C[C@H](O)CC[C@]4(C)[C@H]3C[C@H](O)[C@]12C [ONC0001951, cholic acid] | 93.81
